These are yes or no findings as the source states them, for the method shown. Binding seen in cells or lysates may run through a third protein. Tags and fused reporters may be left off the sequences shown.
Target: T1, FLAG-tagged PHB1 (prohibitin 1) (UniProt P35232)
T1 sequence: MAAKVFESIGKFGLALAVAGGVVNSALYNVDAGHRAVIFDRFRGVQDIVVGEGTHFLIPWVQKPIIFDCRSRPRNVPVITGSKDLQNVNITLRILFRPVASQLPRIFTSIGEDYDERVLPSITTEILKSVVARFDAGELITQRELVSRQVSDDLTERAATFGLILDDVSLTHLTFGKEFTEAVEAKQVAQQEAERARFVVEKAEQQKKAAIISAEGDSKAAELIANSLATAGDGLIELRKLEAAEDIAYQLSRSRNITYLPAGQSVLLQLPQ
Assay: co-IP; anti-FLAG M2 antibody with protein G Plus/A-agarose from lysates of H9c2 cells transfected with FLAG-PHB1 and FLAG-PHB2; cells incubated 0, 15 or 30 min with FL3 (100 nM) before lysis; IP buffer 20 mM Tris-HCl, 5 M NaCl (so in the source), 2 mM EDTA, 1% Triton X-100; western blot with anti-STAT3 or anti-phospho-STAT3

Substance | binding
AKT (rat (endogenous in H9c2)) | no binding
ERK (rat (endogenous in H9c2)) | no binding
